Experimental data reported in article PMC8754431.
These are yes or no findings as the source states them, for the method shown. Binding can be weak; no strength is given. Sequences can lack the tags named with a protein.

Chains of the proteins cited; added tags and fusions are not shown. Lines headed by an entry give the natural chain unless they say otherwise; changes in a name come on top.
UniProt A8JFR3: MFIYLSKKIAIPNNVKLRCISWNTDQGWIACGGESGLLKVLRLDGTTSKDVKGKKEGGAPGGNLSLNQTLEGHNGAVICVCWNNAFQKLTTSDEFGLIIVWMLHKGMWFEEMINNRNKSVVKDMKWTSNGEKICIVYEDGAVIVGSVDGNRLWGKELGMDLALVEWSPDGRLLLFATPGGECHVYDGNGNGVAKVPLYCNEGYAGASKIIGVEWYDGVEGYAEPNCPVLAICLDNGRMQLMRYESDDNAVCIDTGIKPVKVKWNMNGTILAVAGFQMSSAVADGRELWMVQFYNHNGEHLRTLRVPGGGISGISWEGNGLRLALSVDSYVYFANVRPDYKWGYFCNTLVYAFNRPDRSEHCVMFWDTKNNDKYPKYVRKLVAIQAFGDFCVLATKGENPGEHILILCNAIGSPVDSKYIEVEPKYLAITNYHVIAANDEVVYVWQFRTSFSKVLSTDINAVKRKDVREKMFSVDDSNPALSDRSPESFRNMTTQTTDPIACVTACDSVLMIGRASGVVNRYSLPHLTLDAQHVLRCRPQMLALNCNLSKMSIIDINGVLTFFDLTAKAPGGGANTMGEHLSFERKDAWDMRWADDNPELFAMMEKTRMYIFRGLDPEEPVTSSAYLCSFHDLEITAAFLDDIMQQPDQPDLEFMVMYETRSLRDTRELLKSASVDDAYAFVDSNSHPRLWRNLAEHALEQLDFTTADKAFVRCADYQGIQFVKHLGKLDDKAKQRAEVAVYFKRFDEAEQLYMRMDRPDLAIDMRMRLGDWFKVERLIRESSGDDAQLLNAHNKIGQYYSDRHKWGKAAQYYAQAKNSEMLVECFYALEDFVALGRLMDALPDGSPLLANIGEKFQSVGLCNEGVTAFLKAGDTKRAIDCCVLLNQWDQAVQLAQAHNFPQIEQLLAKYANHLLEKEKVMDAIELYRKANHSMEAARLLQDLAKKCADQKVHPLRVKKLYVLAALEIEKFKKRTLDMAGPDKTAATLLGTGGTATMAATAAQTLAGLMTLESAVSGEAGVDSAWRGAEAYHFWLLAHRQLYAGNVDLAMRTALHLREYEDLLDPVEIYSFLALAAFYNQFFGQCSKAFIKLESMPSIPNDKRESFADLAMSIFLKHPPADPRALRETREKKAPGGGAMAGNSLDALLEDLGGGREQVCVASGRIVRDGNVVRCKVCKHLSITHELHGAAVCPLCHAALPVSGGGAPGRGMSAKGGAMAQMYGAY

Legend:
[1] = target: T1, C. reinhardtii His-GFP-IFT43 (from mammalian cells) (C. reinhardtii) (UniProt A8HYP5); test: SEC; His-GFP-IFT43, IFT121 and IFT139 co-expressed in HEK293S; purified by the His-tag on IFT43 (TALON), Q ion exchange, then Superose 6 Increase in 10 mM HEPES pH 7.5, 150 mM NaCl, 2 mM MgCl2, 1 mM DTT, 5% glycerol; peak fractions by SDS-PAGE
T1 sequence: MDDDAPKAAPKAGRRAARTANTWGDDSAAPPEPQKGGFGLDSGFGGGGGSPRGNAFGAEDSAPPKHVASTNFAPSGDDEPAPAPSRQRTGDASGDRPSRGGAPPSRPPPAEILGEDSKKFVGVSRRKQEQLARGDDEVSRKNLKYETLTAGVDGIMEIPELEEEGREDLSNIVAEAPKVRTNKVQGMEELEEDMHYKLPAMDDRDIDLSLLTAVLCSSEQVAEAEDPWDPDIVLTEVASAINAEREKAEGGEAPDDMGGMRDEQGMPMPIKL

[2] = target: T2, C. reinhardtii His-IFT43 (from insect cells) (C. reinhardtii) (UniProt A8HYP5); test: SEC; His-IFT43, IFT121 and IFT139 co-expressed in sf21 cells by co-infection with two baculoviruses; purified by Ni-NTA affinity, ion exchange and SEC
T2 sequence: T1 sequence

Row | binding [1] | binding [2] | Substance
1 | binds |  | C. reinhardtii IFT121 (from mammalian cells) (from UniProt A8JFR3)
2 |  | binds | C. reinhardtii IFT121 (from insect cells) (from UniProt A8JFR3)
